PubChem BioAssay AID504784 | Drosophila RNAi Screening Center, 2011
The screen tested about 17,000 reagents; this is a random part of those with a known target gene and a result. 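Each column is one replicate's B-score; the combined score over replicates was not deposited, so single values may mislead.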 The numbers tell different reagents against one gene apart. Names joined by + are all predicted targets of the reagent.

- Test: 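Search for regulators of lipid droplet storage in oleate-fed fly cells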 (primary screen)
- Cell system: Drosophila Kc167 embryonic cells
- Reagents: long dsRNA against Drosophila genes, about 250 ng dsRNA per well
- Timing: 4 days
- Conditions: cells fed 400 µM oleic acid bound to BSA
- Read-out: 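Cells imaged and segmented; ratio of lipid droplet area to nuclear area, log-transformed, then normalised as a B-score over the screen; higher means more stored lipid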
- Direction: droplet/nuclear area B-score: higher = more stored lipid (overstorage)

| target | reagent no. | droplet/nuclear area B-score, replicate 1 | droplet/nuclear area B-score, replicate 2 | droplet/nuclear area B-score, replicate 3 |
| --- | --- | --- | --- | --- |
| CG42818 + Ca-Ma2d | 1 | 0.506 | -0.0301 | – |
| CG13801 | 1 | -0.698 | -1.19 | – |
| PGRP-SD | 1 | – | 1.1 | – |
| CG6325 | 1 | -0.0442 | 2.55 | – |
| CG31820 | 1 | 0.174 | 1.23 | – |
| zyd | 1 | 0.11 | -0.0023 | – |
| CG11529 | 1 | 2.01 | 0.909 | – |
| KP78a + KP78b | 1 | 0.309 | 0.617 | – |
| KP78a + KP78b | 2 | -0.332 | 0.5 | – |
| CG4789 | 1 | 1.36 | -0.748 | – |
| MsrA | 1 | 0.00785 | -0.852 | – |
| mei-W68 | 1 | 0.0162 | -0.854 | – |
| Torsin | 1 | 0.311 | -1.2 | 1.1 |
| Cyp4d1 | 1 | -1.93 | 0.324 | – |
| Cyp4d1 | 2 | -0.11 | 0.355 | – |
| CG9525 | 1 | 0.63 | -0.0468 | – |
| CG9107 | 1 | -0.108 | -1.69 | – |
| MtnD | 1 | 0.242 | -0.151 | – |
| pds5 | 1 | 0.0811 | -0.0832 | – |
| Ac13E | 1 | -1.8 | 0.0693 | – |
| CG3436 | 1 | 1.87 | 3.36 | – |
| Cda5 | 1 | -1.41 | 0.4 | – |
| Cda5 | 2 | 1.47 | -0.0176 | – |
| Cda5 | 3 | -0.192 | -1.03 | – |
| Cda5 | 4 | 2.06 | -0.13 | – |
| Spindly | 1 | 0.724 | 1.63 | – |
| csul | 1 | -0.1 | 0.731 | – |
| CG17109 | 1 | -0.00882 | -1.52 | – |
| Smvt | 1 | -1.76 | -0.59 | – |
| gammaSnap2 | 1 | 0.62 | -0.106 | – |
| CG42323 | 1 | 0.529 | -0.0876 | – |
| CG42323 | 2 | 0.723 | 1.71 | – |
| CG12483 | 1 | 0.159 | -0.304 | – |
| CG45002 | 1 | -2.31 | -0.00311 | – |
| CG4691 | 1 | 0.393 | 0.679 | – |
| CG14629 | 1 | 1.76 | 2.13 | – |
| Xbp1 | 1 | 0.21 | 0.49 | – |
| Xbp1 | 2 | -0.0265 | 0.367 | – |

10 entries already listed, sorted by “droplet/nuclear area B-score, replicate 1”, highest first:
| target | reagent no. | droplet/nuclear area B-score, replicate 1 | droplet/nuclear area B-score, replicate 2 | droplet/nuclear area B-score, replicate 3 |
| --- | --- | --- | --- | --- |
| Cda5 | 4 | 2.06 | -0.13 | – |
| Spindly | 1 | 0.724 | 1.63 | – |
| CG42323 | 2 | 0.723 | 1.71 | – |
| gammaSnap2 | 1 | 0.62 | -0.106 | – |
| CG42323 | 1 | 0.529 | -0.0876 | – |
| CG12483 | 1 | 0.159 | -0.304 | – |
| CG17109 | 1 | -0.00882 | -1.52 | – |
| csul | 1 | -0.1 | 0.731 | – |
| Cda5 | 3 | -0.192 | -1.03 | – |
| Smvt | 1 | -1.76 | -0.59 | – |

Next records follow.
| target | reagent no. | droplet/nuclear area B-score, replicate 1 | droplet/nuclear area B-score, replicate 2 | droplet/nuclear area B-score, replicate 3 |
| --- | --- | --- | --- | --- |
| Axn | 1 | 3 | – | -0.617 |
| CG17601 | 1 | -0.0682 | -0.148 | – |
| CAH1 + Adat1 | 1 | -2.41 | 1.07 | – |
| Tlk | 1 | 1.16 | 0.187 | – |
| Tlk | 2 | -0.126 | – | – |
| Tlk | 3 | -4.16 | -2.95 | – |
| Tlk | 4 | -3.66 | -0.0238 | – |
| Tlk | 5 | 0.506 | -0.967 | – |
| Tlk | 6 | -1.15 | -1.44 | – |
| CG8100 | 1 | 1.04 | -0.406 | – |
| elfless | 1 | -1.37 | -1.09 | – |
| CG2698 | 1 | 0.647 | 2.96 | – |
| CG15534 | 1 | -1.23 | -0.488 | – |
| Alg7 | 1 | 0.338 | -1.42 | – |
| Alg7 | 2 | -0.523 | 0.00552 | – |
| fiz | 1 | -1.65 | -0.185 | -0.08 |
| TrxT | 1 | -0.958 | -1.63 | – |
| TrxT | 2 | -0.582 | -0.685 | – |
| CG10702 | 1 | -0.0367 | 0.274 | – |
| Nct | 1 | -1.04 | -0.0126 | – |
| galla-2 | 1 | 0.0643 | -0.973 | -0.632 |
| galla-2 | 2 | 1.82 | -0.131 | – |
| CG43386 | 1 | 2.69 | -0.776 | -0.0641 |
| Vps24 | 1 | 2.11 | -1.76 | 1.71 |
| CG31210 (retired record) + CG4836 | 1 | -0.348 | -1.13 | – |
| Adgf-A2 | 1 | 3.13 | -0.156 | – |
| nac | 1 | -1.09 | -0.56 | – |
| Cpr49Aa | 1 | 0.812 | 0.888 | – |
| Pkg21D | 1 | 0.549 | 0.129 | – |
| BomS6 | 1 | -0.604 | -0.825 | – |
| Vajk4 | 1 | -0.758 | 1.97 | – |
| Vajk4 | 2 | -0.514 | – | – |
| ninaD | 1 | -0.000693 | 2.35 | – |
| mtm | 1 | -0.449 | -1.07 | – |
| CG30378 | 1 | 0.0419 | -0.192 | – |
| RFeSP | 1 | -1.22 | 2.12 | – |
| tweek | 1 | 2.63 | 3.22 | – |
| tweek | 2 | -0.525 | 1.93 | – |
| tweek | 3 | -2.49 | -1.91 | – |
| tweek | 4 | -2.29 | -1.23 | – |
| CG33144 | 1 | 0.0318 | 1.66 | – |
| CG33144 | 2 | -0.89 | 0.988 | – |
| Gadd45 | 1 | 0.00267 | 0.0504 | – |
| CG5937 | 1 | 1.51 | 0.832 | – |
| Oct-TyrR | 1 | 1.92 | 0.0853 | – |
